Measured values reported in ChEMBL document CHEMBL4513141, “CO-ADD screening of NIH (USA) - Clinical Collection” (2021).
This is one part of the list. Potency and affinity values are given separately.

System: Pseudomonas aeruginosa
Conditions: Concentration 20 uM; ASSAY_TEST Inhibition of Bacterial Growth; detection method Absorption (OD600); MEDIA CAMHB; plate type 384well; NBS; CORNING #3640; time 18 hr

SMILES	Inhibition [%]
COc1ccc2c(c1)c(CC(=O)O)c(C)n2C(=O)c1ccc(Cl)cc1.O	6.24
CC12CC3CC(C)(C1)CC(N)(C3)C2.Cl [MEMANTINE HYDROCHLORIDE]	14.28
COc1cc2c(cc1OC)C(=O)C(CC1CCN(Cc3ccccc3)CC1)C2.Cl (configuration not stated) [DONEPEZIL HYDROCHLORIDE]	10.6
Nc1nc(Cl)nc2c1ncn2[C@H]1C[C@H](O)[C@@H](CO)O1 [CLADRIBINE]	16.28
CC(C)(C)NC(=O)[C@@H]1C[C@@H]2CCCC[C@@H]2CN1C[C@@H](O)[C@H](Cc1ccccc1)NC(=O)[C@H](CC(N)=O)NC(=O)c1ccc2ccccc2n1.CS(=O)(=O)O [SAQUINAVIR MESYLATE]	16.83
CCCc1cc(=O)[nH]c(=S)[nH]1 [PROPYLTHIOURACIL]	12.96
Cc1onc(-c2ccccc2)c1-c1ccc(S(N)(=O)=O)cc1 [VALDECOXIB]	8.96
Cc1sc(N)c(C(=O)c2cccc(C(F)(F)F)c2)c1C	7.15
CN(C)CCCSc1ccccc1NC(=O)/C=C/c1ccccc1.Cl.O	20.84
CC(C)c1ccc2oc3nc(N)c(C(=O)O)cc3c(=O)c2c1 [AMLEXANOX]	21.06
COC(=O)Nc1nc2cc(C(=O)c3ccccc3)ccc2[nH]1 [MEBENDAZOLE]	13.95
CCC(=O)O[C@]1(C(=O)CCl)[C@@H](C)C[C@H]2[C@@H]3CCC4=CC(=O)C=C[C@]4(C)[C@@]3(F)[C@@H](O)C[C@@]21C [CLOBETASOL PROPIONATE]	1.19
N[C@@H]1CONC1=O [CYCLOSERINE]	60.23
O=C(O)COCCN1CCN(C(c2ccccc2)c2ccc(Cl)cc2)CC1 (configuration not stated) [CETIRIZINE]	16.42
CC(=O)OCC(=O)C12OC3(CCCC3)OC1CC1C3CCC4=CC(=O)C=CC4(C)C3(F)C(O)CC12C (configuration not stated)	17.26
CC(CCc1ccccc1)NCC(O)c1ccc(O)c(C(N)=O)c1.Cl (configuration not stated) [LABETALOL HYDROCHLORIDE]	15.98
COc1cc2nc(N(C)CCCNC(=O)C3CCCO3)nc(N)c2cc1OC (configuration not stated) [ALFUZOSIN]	13.27
CC1=C(/C=C/C(C)=C/C=C/C(C)=C/C(=O)O)C(C)(C)CCC1 [TRETINOIN]	21.29
CCOC(=O)[C@@H](CCc1ccccc1)N[C@@H](C)C(=O)N1CCC[C@H]1C(=O)O.O=C(O)/C=C\C(=O)O	1.23
CN1CCN(C2=Nc3ccccc3Oc3ccc(Cl)cc32)CC1.O=C(O)CCC(=O)O [LOXAPINE SUCCINATE]	4.74
CCCN(CCC)S(=O)(=O)c1ccc(C(=O)O)cc1 [PROBENECID]	19.93
O=C(O)c1cc2ccccc2c(Cc2c(O)c(C(=O)O)cc3ccccc23)c1O.OCCOCCN1CCN(C(c2ccccc2)c2ccc(Cl)cc2)CC1 [HYDROXYZINE PAMOATE]	23
O=C1CN(/N=C/c2ccc(-c3ccc([N+](=O)[O-])cc3)o2)C(=O)[N-]1.[Na+] [DANTROLENE SODIUM]	-2.63
O=c1cnn([C@@H]2O[C@H](CO)[C@@H](O)[C@H]2O)c(=O)[nH]1 [6-AZAURIDINE]	9.22

SMILES	Inhibition [%]
N[C@@H](Cc1cc(I)c(Oc2cc(I)c(O)c(I)c2)c(I)c1)C(=O)O [LEVOTHYROXINE]	-9.42
CC(=O)OCC(=O)[C@@]1(O)CC[C@H]2[C@@H]3CCC4=CC(=O)CC[C@]4(C)[C@H]3C(=O)C[C@@]21C [CORTISONE ACETATE]	12.77
CC1CNc2c(cccc2S(=O)(=O)N[C@@H](CCCNC(=N)N)C(=O)N2CC[C@@H](C)C[C@@H]2C(=O)O)C1 (some centres not stated) [ARGATROBAN]	9.28
OCc1cccnc1 [NICOTINYL ALCOHOL]	13.13
Cl.Clc1ccc2nsnc2c1NC1=NCCN1 [TIZANIDINE HYDROCHLORIDE]	18.39
Cl.Cn1c(NCCN(CCO)CCCc2ccc([N+](=O)[O-])cc2)cc(=O)n(C)c1=O	9.57
C[C@]12C=CC(=O)C=C1CC[C@@H]1[C@@H]2[C@@H](O)C[C@@]2(C)[C@H]1CC[C@]2(O)C(=O)CO [PREDNISOLONE]	12.94
CCC(CO)NCCNC(CC)CO (configuration not stated)	12.6
Cc1c(C(=O)NN2CCCCC2)nn(-c2ccc(Cl)cc2Cl)c1-c1ccc(I)cc1	26.55
O=C(O)CCNC(=O)c1ccc(N=Nc2ccc(O)c(C(=O)O)c2)cc1	8.38
CC(C)(C#N)c1cc(Cn2cncn2)cc(C(C)(C)C#N)c1 [ANASTROZOLE]	1.01
Nc1ccn([C@H]2CC[C@@H](CO)O2)c(=O)n1 [ZALCITABINE]	1.57
CCOC(=O)C1(CCCCCCOc2ccc(Cl)cc2)CO1 (stereo not drawn) [rac-ETOMOXIR]	-3.66
O=C(C1CCCCC1)N1CC(=O)N2CCc3ccccc3C2C1 (configuration not stated) [PRAZIQUANTEL]	14.4
CN(C)CCOC(c1ccccc1)c1ccccc1.Cl [DIPHENHYDRAMINE HYDROCHLORIDE]	6.73
COc1cc(C[C@@H](CO)[C@H](CO)Cc2ccc(O)c(OC)c2)ccc1O [(+)-SECOISOLARICIRESINOL]	4.3
Cc1cccc(C)c1NC(=O)C(C)N (configuration not stated) [TOCAINIDE]	15.76
Cl.c1ccc(CC2=NCCN2)cc1 [TOLAZOLINE HYDROCHLORIDE]	13.23
CN1CCN(C2=Nc3cc(F)ccc3Cc3ccccc32)CC1 [FLUPERLAPINE]	16.87
CC(C[N+](C)(C)C)OC(N)=O.[Cl-] (configuration not stated) [BETHANECHOL CHLORIDE]	6.75
Cl.O=C(NCC1CCCCN1)c1cc(OCC(F)(F)F)ccc1OCC(F)(F)F (configuration not stated)	10.48
COc1ccc(C(=O)NCc2ccc(OCCN(C)C)cc2)cc1OC.Cl	10.45
Oc1ccc(/C=C/c2cc(O)cc(O)c2)cc1 [RESVERATROL]	10.36
COc1ccc(/C=C/C(=O)Nc2ccccc2C(=O)O)cc1OC	3.06

As entered above.
Under Inhibition [%], CC(C)c1ccc2oc3nc(N)c(C(=O)O)cc3c(=O)c2c1 [AMLEXANOX] has 21.06
Under Inhibition [%], CN(C)CCOC(c1ccccc1)c1ccccc1.Cl [DIPHENHYDRAMINE HYDROCHLORIDE] has 6.73
Under Inhibition [%], CC1=C(/C=C/C(C)=C/C=C/C(C)=C/C(=O)O)C(C)(C)CCC1 [TRETINOIN] has 21.29

More entries

SMILES	Inhibition [%]
CNCC[C@@H](Oc1ccccc1C)c1ccccc1.Cl [ATOMOXETINE HYDROCHLORIDE]	12.55
Nc1ncnc2c1ncn2[C@@H]1O[C@H](CO)C[C@@H]1O.O	10.96
Cc1cccc(Nc2ccncc2S(=O)(=O)NC(=O)NC(C)C)c1 [TORSEMIDE]	3.65
NC(=O)N1c2ccccc2CC(=O)c2ccccc21 [OXCARBAZEPINE]	18.9
Cc1ccccc1C(OCCN(C)C)c1ccccc1.Cl (configuration not stated) [ORPHENADRINE HYDROCHLORIDE]	12.56
NS(=O)(=O)Cc1noc2ccccc12 [ZONISAMIDE]	11.37
NCC(=O)CCC(=O)O [AMINOLEVULINIC ACID]	12.16
Cc1ccc(C)c(OCCCC(C)(C)C(=O)O)c1 [GEMFIBROZIL]	4.27
CC(=O)O[C@H]1C[C@@H]2CC[C@@H]3[C@H](CC[C@@]4(C)[C@H]3C[C@H]([N+]3(C)CCCCC3)[C@@H]4OC(C)=O)[C@@]2(C)C[C@@H]1N1CCCCC1.[Br-] [VECURONIUM BROMIDE]	6.77
COCCOC(=O)C1=C(C)NC(C)=C(C(=O)OC(C)C)C1c1cccc([N+](=O)[O-])c1 (configuration not stated) [NIMODIPINE]	19.21
CCN(CC)CC1CCCCN1CC(=O)N1c2ccccc2C(=O)Nc2cccnc21 (configuration not stated) [OTENZEPAD]	36.09
Cc1ccc(O)c([C@H](CCN(C(C)C)C(C)C)c2ccccc2)c1.O=C(O)C(O)C(O)C(=O)O [TOLTERODINE TARTRATE]	10.33
C[C@@H]1O[C@@H](OC[C@H]2O[C@@H](Oc3c(-c4ccc(O)c(O)c4)oc4cc(O)cc(O)c4c3=O)[C@H](O)[C@@H](O)[C@@H]2O)[C@H](O)[C@H](O)[C@H]1O [RUTIN]	17.85
CC(=O)/N=c1/sc(S(N)(=O)=O)nn1C [METHAZOLAMIDE]	8.55
CCCc1nc2c(C)cc(-c3nc4ccccc4n3C)cc2n1Cc1ccc(-c2ccccc2C(=O)O)cc1	38.9
C[C@]12CCC(=O)C=C1CC[C@@H]1[C@@H]2[C@@H](O)C[C@@]2(C)[C@H]1CC[C@]2(O)C(=O)COC(=O)CCC(=O)O [HYDROCORTISONE HEMISUCCINATE ANHYDROUS]	18.29
CC(C)(C)NCC(O)COc1cccc2c1CC(O)C(O)C2 (configuration not stated) [NADOLOL]	21.21
CC(=O)NCCCCCCNC(C)=O [HEXAMETHYLENEBISACETAMIDE]	3.02
Cc1nccn1CC1CCc2c(c3ccccc3n2C)C1=O (configuration not stated) [ONDANSETRON]	13.9
CCCNC(C)C(=O)Nc1ccccc1C.Cl (configuration not stated) [PRILOCAINE HYDROCHLORIDE]	14.94
CN1CCCC(n2nc(Cc3ccc(Cl)cc3)c3ccccc3c2=O)CC1.Cl (configuration not stated) [AZELASTINE HYDROCHLORIDE]	4.91
Nc1nnc(-c2cccc(Cl)c2Cl)c(N)n1 [LAMOTRIGINE]	7.8
O=c1c(-c2ccccc2)c1-c1ccccc1 [DIPHENCYPRONE]	1.62
CC(C)(C)NC(=O)[C@@H]1CN(Cc2cccnc2)CCN1C[C@@H](O)C[C@@H](Cc1ccccc1)C(=O)N[C@H]1c2ccccc2C[C@H]1O.O=S(=O)(O)O [INDINAVIR SULFATE]	7.97
